PubChem BioAssay AID1259405 – NCATS – 2018

- Aim: 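Silenced genes that increase secreted GFP made by CHO cells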 (primary screen)
- Cell system: Chinese hamster CHO-K1 ovary cells with stable secreted eGFP expression
- Reagent: single siRNA against mouse genes, 0.8 pmol siRNA per well (2 µl of 400 nM stock)
- Timing: 3 days
- Read-out: 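Percent of the per-plate non-targeting control median for intracellular GFP per well by laser scanning cytometry and for cell viability by ATP luminescence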
- Reading the numbers: GFP, % of control: higher = more GFP per well, higher productivity; viability (ATP), % of control: higher = more viable cells (more ATP)
- Active means: 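a knock-down is called active if GFP reaches 120% or more of non-targeting control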
The whole screen tested about 50,000 reagents; this is a part drawn at random. About 4,000 of them (8%) count as active. 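Mouse siRNA library applied to hamster cells; one well for each siRNA.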 A number with no mark means an inactive call. The numbers tell different reagents against one gene apart.

gene	reagent	GFP, % of control	viability (ATP), % of control
Pla2g4e	1	91.7	27.3
Pla2g4e	2	154 (active)	73.1
Pla2g4e	3	125 (active)	76
Prkdc	1	62.4	68.9
Ptgs1	1	120	58.9
Ptgs1	2	81.4	85.2
Ptgs1	3	112	87.4
Cma1	1	57.7	90.7
Cma1	2	85.1	88.3
Cma1	3	61.9	51.9
Meox2	1	108	125
Meox2	2	62.6	87.5
Meox2	3	60	102
Dhx40	1	153 (active)	132
Dhx40	2	64.1	69.2
Dhx40	3	62.6	67.2
Smcp	1	99	78.6
Smcp	2	62.2	90.7
Smcp	3	117	71.2
Sfmbt2	1	37.5	70.6
Sfmbt2	2	110	103
Sfmbt2	3	64.8	60.7
Pold1	1	47.1	78.2
Pold1	2	42.5	55.8
Pold1	3	92.7	79.6
Cab39l	1	56.2	52.5
Cab39l	2	29.7	34.6
Cab39l	3	70.8	60.2
Agt	1	72.2	48.2
Agt	2	51.9	56.2
Agt	3	56.9	51.2
Dock3	1	76.9	64.2
Dock3	2	81.5	90
Dock3	3	64.1	78.6
